Test results published in publication PMC12643519.
No constants are given. Whether binding was seen depends on the method and setting. Binding seen in cells or lysates may run through a third protein. A yes stands for co-enrichment or nearness to the bait. Other partners may have been found. Where a sequence is shown, tags or fusion partners need not be part of it.

Protein sequences, listed by entry. Tags and fused reporters are not part of them.
UniProt P35580: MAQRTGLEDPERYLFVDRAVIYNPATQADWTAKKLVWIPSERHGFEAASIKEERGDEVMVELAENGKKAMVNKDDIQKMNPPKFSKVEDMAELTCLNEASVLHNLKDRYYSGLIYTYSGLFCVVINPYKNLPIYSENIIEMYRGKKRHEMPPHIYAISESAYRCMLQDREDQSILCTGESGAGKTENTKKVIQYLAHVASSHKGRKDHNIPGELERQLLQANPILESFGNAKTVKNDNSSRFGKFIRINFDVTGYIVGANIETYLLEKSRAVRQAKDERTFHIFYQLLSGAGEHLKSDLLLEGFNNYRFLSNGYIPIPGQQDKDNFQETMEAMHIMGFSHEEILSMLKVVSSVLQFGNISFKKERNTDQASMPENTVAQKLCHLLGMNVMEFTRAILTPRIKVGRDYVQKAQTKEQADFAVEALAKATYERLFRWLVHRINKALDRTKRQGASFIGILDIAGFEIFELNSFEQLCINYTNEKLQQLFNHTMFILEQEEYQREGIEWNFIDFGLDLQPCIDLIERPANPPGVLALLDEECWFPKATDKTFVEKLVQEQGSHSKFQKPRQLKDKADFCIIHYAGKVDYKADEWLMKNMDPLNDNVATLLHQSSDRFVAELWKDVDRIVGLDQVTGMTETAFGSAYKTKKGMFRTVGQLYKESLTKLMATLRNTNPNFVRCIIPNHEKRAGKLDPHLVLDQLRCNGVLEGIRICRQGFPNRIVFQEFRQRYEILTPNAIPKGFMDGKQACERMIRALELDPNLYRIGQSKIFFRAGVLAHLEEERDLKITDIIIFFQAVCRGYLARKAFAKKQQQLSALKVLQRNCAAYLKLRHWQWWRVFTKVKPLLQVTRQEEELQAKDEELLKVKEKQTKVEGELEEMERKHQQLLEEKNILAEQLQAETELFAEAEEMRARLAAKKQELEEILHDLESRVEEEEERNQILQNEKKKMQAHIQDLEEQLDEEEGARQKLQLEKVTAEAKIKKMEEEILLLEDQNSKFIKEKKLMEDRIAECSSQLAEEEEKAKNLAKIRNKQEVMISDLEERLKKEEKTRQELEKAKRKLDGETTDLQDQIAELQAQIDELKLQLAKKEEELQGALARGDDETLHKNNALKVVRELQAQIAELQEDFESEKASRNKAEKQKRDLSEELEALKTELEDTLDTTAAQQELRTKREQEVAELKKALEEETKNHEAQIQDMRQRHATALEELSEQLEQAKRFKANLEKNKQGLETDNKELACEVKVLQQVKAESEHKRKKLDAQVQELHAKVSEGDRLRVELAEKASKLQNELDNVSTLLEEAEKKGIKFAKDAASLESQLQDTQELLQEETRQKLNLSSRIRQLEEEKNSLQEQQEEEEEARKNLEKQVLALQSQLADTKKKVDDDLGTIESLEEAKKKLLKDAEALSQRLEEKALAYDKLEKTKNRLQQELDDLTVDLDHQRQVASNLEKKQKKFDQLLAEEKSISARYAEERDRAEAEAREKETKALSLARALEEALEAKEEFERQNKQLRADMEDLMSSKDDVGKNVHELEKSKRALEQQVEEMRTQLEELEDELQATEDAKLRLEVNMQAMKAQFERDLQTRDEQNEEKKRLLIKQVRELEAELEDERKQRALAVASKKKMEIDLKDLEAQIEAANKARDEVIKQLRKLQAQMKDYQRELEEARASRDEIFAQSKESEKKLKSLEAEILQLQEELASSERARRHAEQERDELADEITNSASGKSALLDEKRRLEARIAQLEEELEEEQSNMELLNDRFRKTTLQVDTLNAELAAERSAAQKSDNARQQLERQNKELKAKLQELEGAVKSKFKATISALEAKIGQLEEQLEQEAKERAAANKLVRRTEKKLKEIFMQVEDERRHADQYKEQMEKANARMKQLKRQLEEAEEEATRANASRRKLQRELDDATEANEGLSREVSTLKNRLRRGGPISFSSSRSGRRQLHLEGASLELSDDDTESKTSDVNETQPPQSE
UniProt Q7Z406: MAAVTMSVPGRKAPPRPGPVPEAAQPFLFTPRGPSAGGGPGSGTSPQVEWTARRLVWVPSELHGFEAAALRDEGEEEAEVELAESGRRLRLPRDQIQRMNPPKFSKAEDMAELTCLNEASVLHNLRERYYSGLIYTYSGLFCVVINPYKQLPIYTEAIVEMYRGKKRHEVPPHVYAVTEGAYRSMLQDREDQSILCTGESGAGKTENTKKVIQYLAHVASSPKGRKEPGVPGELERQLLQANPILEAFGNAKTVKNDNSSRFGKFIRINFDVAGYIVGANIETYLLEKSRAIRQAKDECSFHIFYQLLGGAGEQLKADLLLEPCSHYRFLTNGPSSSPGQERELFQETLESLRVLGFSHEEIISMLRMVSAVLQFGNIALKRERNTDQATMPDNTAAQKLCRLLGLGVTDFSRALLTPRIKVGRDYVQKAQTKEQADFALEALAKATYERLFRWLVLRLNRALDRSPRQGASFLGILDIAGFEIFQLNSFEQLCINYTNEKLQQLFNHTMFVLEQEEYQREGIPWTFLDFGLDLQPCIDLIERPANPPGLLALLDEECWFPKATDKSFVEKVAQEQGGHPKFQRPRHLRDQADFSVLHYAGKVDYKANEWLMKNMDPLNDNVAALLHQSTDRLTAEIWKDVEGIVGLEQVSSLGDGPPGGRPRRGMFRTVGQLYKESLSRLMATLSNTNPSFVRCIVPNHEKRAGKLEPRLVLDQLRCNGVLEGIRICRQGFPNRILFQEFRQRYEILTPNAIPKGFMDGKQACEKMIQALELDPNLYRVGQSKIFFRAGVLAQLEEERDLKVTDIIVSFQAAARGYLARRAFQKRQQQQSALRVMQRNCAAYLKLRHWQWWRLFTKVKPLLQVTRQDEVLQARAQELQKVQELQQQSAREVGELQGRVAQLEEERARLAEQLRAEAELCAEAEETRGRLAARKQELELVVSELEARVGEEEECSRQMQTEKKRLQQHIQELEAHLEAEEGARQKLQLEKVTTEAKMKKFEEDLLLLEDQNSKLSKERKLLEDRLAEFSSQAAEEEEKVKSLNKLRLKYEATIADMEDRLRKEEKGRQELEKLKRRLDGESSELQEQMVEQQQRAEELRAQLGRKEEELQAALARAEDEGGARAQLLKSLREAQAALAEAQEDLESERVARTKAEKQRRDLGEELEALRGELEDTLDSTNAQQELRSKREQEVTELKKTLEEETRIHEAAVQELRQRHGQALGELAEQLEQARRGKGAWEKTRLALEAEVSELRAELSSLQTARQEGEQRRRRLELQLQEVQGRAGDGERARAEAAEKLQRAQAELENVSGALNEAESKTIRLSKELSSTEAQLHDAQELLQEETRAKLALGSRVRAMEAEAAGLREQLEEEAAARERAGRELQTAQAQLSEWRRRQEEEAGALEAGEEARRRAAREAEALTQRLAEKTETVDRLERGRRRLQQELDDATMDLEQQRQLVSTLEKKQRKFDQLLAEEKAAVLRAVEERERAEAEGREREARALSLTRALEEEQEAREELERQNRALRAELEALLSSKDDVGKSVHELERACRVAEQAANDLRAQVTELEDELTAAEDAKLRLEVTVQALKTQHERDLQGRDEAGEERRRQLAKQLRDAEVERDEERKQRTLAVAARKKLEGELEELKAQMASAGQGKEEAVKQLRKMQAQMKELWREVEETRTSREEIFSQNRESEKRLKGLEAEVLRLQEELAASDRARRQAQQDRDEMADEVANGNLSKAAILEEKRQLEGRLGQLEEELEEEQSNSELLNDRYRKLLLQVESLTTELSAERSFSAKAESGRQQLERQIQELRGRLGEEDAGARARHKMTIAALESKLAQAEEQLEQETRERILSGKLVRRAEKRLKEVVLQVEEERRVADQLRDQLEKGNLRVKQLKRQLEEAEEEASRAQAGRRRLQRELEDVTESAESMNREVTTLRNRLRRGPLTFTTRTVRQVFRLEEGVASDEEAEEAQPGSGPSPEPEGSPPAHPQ
UniProt O43707: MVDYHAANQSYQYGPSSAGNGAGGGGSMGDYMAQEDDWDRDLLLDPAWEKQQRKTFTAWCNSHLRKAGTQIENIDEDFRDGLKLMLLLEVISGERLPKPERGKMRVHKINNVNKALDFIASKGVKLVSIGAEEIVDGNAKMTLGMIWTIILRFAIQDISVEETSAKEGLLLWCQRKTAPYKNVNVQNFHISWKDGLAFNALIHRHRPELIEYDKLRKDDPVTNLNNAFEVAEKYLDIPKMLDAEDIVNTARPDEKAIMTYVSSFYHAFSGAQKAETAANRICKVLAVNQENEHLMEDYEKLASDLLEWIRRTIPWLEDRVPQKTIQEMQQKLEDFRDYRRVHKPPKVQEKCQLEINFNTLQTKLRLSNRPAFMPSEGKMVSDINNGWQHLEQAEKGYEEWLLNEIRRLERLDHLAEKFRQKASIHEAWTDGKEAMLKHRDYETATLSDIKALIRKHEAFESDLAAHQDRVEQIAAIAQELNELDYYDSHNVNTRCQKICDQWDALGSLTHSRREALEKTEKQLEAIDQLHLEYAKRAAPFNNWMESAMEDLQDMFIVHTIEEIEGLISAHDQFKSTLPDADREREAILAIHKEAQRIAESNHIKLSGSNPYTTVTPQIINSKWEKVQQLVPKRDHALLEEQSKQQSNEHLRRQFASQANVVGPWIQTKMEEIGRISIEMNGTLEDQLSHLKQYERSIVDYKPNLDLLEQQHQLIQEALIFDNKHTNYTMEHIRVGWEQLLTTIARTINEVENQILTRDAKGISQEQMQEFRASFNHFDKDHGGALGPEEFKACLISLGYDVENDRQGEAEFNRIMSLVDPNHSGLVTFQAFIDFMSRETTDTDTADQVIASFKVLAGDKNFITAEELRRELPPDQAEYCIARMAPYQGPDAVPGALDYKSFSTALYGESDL

What follows are substances tested against T1, SEPT9-GFP (UniProt Q9UHD8) (assay: affinity purification with mass spectrometry; pulldowns of SEPT9-GFP overexpressed in DLD-1 cells).
T1 sequence: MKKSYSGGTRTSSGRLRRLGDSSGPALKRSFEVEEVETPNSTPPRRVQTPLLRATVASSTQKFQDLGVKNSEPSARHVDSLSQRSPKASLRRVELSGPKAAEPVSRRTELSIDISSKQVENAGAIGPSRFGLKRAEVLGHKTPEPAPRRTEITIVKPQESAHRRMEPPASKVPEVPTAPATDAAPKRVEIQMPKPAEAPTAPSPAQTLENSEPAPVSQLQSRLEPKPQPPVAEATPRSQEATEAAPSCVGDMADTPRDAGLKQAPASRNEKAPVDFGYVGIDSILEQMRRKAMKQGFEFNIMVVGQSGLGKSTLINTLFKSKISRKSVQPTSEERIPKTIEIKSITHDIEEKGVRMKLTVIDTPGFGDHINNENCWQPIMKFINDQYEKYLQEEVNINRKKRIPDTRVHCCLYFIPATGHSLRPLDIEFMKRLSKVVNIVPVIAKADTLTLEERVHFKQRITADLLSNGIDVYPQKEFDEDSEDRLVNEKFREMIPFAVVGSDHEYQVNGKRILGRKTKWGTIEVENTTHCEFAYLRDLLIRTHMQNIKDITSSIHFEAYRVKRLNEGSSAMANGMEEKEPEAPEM

Which binding does the source give for NMIIB (from UniProt P35580 1-1976) here?
The binding was “binds”.

How did the binding turn out when “nonmuscle myosin IIC (from UniProt Q7Z406 1-1995)” was run?
Its binding is “binds”.

Which binding does the source give for α-actinin-4 (from UniProt O43707 1-911) here?
The binding was “binds”.
